Experimental data reported in publication PMC6258492.
No constants are given. Whether binding was seen depends on the method and setting. Binding seen in cells or lysates may run through a third protein. Some results given as binding are weak or reduced against the parent protein; the word gives no strength.

The chains behind the UniProt entries cited, without tags or fusion partners.
UniProt P08151: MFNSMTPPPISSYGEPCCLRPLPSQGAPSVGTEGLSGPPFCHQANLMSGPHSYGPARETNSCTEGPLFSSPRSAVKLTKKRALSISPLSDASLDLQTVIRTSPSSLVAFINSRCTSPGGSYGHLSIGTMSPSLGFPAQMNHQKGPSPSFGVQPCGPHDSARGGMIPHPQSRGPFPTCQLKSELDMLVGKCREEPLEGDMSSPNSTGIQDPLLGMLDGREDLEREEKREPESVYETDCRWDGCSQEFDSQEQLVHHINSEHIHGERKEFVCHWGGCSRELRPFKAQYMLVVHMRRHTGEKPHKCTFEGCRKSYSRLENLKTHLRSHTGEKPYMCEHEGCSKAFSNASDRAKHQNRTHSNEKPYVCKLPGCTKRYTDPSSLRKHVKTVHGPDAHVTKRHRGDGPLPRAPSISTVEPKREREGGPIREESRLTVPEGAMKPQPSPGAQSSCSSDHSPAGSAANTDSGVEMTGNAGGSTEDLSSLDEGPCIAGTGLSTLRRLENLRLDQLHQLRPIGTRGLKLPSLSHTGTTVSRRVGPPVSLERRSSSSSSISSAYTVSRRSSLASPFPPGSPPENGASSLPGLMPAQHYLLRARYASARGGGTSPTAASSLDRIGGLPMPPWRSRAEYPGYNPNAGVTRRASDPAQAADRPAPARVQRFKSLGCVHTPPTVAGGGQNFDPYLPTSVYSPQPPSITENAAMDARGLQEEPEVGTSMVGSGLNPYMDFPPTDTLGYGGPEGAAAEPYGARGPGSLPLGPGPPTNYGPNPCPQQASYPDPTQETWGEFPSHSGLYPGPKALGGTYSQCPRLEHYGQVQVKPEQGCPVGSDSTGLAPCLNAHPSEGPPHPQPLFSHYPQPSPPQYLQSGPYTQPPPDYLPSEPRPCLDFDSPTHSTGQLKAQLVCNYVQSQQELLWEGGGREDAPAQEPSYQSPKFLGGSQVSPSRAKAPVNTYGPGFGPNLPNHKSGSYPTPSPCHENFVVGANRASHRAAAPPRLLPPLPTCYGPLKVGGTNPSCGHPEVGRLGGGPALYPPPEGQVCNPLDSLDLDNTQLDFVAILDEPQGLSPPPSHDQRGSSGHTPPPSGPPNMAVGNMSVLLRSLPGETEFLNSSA

Biological target: T1, Ubiquitin specific peptidase 37 (USP37) (human (endogenous in MCF-7)) (UniProt Q86T82)
T1 sequence: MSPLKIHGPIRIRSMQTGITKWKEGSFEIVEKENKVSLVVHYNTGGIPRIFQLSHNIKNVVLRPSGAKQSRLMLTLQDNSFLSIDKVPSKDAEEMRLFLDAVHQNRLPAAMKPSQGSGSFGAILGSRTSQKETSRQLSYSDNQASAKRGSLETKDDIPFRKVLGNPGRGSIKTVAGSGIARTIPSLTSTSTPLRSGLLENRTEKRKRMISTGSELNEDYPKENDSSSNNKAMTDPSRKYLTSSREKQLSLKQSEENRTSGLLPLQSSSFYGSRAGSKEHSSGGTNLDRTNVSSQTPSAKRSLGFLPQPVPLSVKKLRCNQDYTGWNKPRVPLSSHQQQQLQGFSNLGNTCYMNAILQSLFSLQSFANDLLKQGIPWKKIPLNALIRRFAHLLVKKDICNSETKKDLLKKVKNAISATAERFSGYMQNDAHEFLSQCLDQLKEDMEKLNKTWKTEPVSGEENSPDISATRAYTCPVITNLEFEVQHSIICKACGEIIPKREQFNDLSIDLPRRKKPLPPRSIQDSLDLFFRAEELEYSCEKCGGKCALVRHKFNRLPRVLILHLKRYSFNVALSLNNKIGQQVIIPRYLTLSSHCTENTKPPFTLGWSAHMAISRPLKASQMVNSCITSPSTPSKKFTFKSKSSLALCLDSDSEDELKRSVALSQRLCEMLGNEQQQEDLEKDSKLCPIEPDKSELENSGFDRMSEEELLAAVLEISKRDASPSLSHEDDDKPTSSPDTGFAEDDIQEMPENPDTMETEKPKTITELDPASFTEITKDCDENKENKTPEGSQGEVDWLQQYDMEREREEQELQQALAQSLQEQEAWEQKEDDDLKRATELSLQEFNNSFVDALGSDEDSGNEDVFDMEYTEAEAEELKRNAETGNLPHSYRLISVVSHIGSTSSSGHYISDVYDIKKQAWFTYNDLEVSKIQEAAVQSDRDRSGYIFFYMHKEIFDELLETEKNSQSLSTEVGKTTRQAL
Experiment: co-IP; 8 x 10^6 MCF-7 cells lysed in IP lysis buffer with protease inhibitor; IP Kit (Proteintech Group); endogenous proteins; which protein was precipitated not given

binding: binds
Substance: glioma-associated oncogene 1 (Gli-1) (from UniProt P08151 1-1106)
